## Screening data

From PubChem BioAssay record AID1224904 (Broad Institute, 2016).

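293T-iDUX4 cells carrying a ZSCAN4-driven Gaussia luciferase and a tet-on Italica luciferase control; the gap between the two luminescence signals is read after 24 h. The test concentration is not given here. Percent difference between the Gaussia and Italica channels; more negative values mean more selective suppression of the DUX4 reporter, and higher values mean less activity.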

Values are in %. The controls that fix the scale are not given here. Common to all entries: measured here: selective DUX4 reporter inhibition. This is a side read-out of the assay, for part of the compounds, not drawn at random.

Compound,Gaussia minus Italica difference (%)
COc1ccc2c3c([nH]c2c1)[C@H](CO)N(C(=O)NC(C)C)CC31CCN(C(=O)NC2CCCC2)CC1,-3.436
COc1ccc(-c2ccc([C@@H]3[C@H](CO)N4CCCCN(C(=O)c5ccc(F)cc5)C[C@@H]34)cc2)cc1,6.522
CN1c2ccc(-c3cccc(C#N)c3)cc2[C@@H]2[C@@H](CCN2S(=O)(=O)c2ccc(F)cc2)[C@@H]1CO,5.717
COc1cccc(S(=O)(=O)N2CCCCN3[C@H](C2)[C@@H](c2ccc(-c4cccnc4)cc2)[C@@H]3CO)c1,-11.05
O=C(CC1CC1)N1[C@H](CO)[C@@H](c2ccccc2)C12CN(Cc1ccccc1F)C2,0.1708
COc1ccc(S(=O)(=O)N(C)C[C@H]2OCc3ccccc3-c3c(n(C)c4ccccc34)C(=O)N([C@H](C)CO)C[C@H]2C)cc1,-17.12
COc1ccc2c3c(n(C)c2c1)[C@H](CO)NCC31CN(Cc2ccc(-c3ccccn3)cc2)C1,-4.478
COc1ccc2c3c([nH]c2c1)[C@@H](CO)N(C)CC31CCN(S(=O)(=O)c2cccc(F)c2)CC1,-10.02
O=C(C[C@@H]1CC[C@H]2[C@@H](COC[C@@H](O)CN2Cc2cc(F)ccc2F)O1)N[C@@H]1CCN(Cc2ccccc2)C1,-7.619
O=C(C[C@H]1CC[C@H]2[C@@H](COC[C@@H](O)CN2Cc2cccc(-c3ccncc3)c2)O1)N1CCN(c2ccccc2)CC1,1.754
O=C(C[C@@H]1CC[C@H]2[C@@H](COC[C@@H](O)CN2C(=O)c2cc(Cl)cc(Cl)c2)O1)N1CCc2ccccc2C1,-14.9
COc1ccccc1CN1C[C@@H]2N[C@H](C1)C2c1ccc(-c2cccc(C#N)c2)cc1 (stereo partly specified),-21.95
CCCNC(=O)N1CC2(CCN(Cc3cccc(OC)c3)CC2)c2c([nH]c3cc(OC)ccc23)[C@@H]1CO,1.443
COCC(=O)N1CC[C@@H]2[C@H](CO)Nc3ccc(-c4cccc(C(=O)N(C)C)c4)cc3[C@@H]21,-11.64
COc1ccc2c3c([nH]c2c1)[C@@H](CO)N(Cc1ccccc1F)CC31CCN(S(C)(=O)=O)CC1,-4.147
COc1cccc(-c2ccc3c(c2)[C@H]2[C@H](CCN2C(=O)c2ccccc2F)[C@@H](CO)N3C)c1,8.739
COc1ccccc1CNC(=O)C[C@@H]1CC[C@@H]2[C@H](COC[C@@H](O)CN2Cc2cccc(-c3ccncc3)c2)O1,4.548
COc1ccccc1NC(=O)N1CCCCN2[C@@H](CO)[C@@H](c3ccc(-c4cccc(F)c4)cc3)[C@@H]2C1,23.27
N#Cc1cccc(-c2ccc3c(c2)[C@H]2[C@H](CCN2C(=O)c2ccccc2F)[C@H](CO)N3)c1,-19.18
O=C(NCC1CC1)[C@H]1N[C@H]2c3ccc(-c4ccccc4F)c(=O)n3C[C@H]2[C@@H]1CO,-18.6
Cc1ccccc1-c1ccc(C2[C@@H]3CN(C(=O)c4ccc(F)cc4)C[C@H]2N3)cc1 (stereo partly specified),-17.11
O=C(c1ccccc1)N1CC[C@@H]2[C@H](CO)Nc3ccc(-c4ccc(F)cc4)cc3[C@@H]21,-6.237
COc1ccc(-c2ccc3c(c2)[C@H]2[C@H](CCN2S(=O)(=O)c2ccc(OC)cc2)[C@H](CO)N3)cc1,33.32
COc1cccc(-c2ccc3c(c2)[C@@H]2[C@@H](CCN2C(=O)c2cccc(F)c2)[C@H](CO)N3)c1,26.67
CC(=O)N1CCCCN2[C@H](C1)[C@H](c1ccc(-c3cccc(C)c3)cc1)[C@@H]2CO,-14.67
COc1ccccc1S(=O)(=O)N1CC[C@H]2[C@H](CO)Nc3ccc(-c4ccccc4)cc3[C@H]21,36.56
CN(C)C(=O)c1cccc(-c2ccc3c(c2)[C@@H]2[C@@H](CCN2Cc2nccs2)[C@@H](CO)N3)c1,-12.35
O=C(CCN1CCCCC1)N[C@@H]1CC[C@H](CC(=O)N2CCC(Cc3ccccc3)CC2)O[C@H]1CO,-13.19
O=C(NCC[C@H]1CC[C@@H](NS(=O)(=O)c2ccc(Cl)cc2)[C@@H](CO)O1)Nc1ccc(F)cc1,-4.773
OC[C@@H]1Nc2ccc(C#Cc3ccccc3)cc2[C@@H]2[C@H]1CCN2Cc1nccs1,-23.2
CCCN1[C@H](C(=O)NCC)[C@@H](CO)[C@@H]2Cn3c(ccc(/C=C/c4ccccc4)c3=O)[C@@H]21,-9.057
N#Cc1cccc(-c2ccc(C3[C@@H]4CN(S(=O)(=O)c5ccc(F)cc5)C[C@H]3N4)cc2)c1 (stereo partly specified),-14.02
OC[C@H]1[C@@H](c2ccc(C#Cc3ccccc3)cc2)[C@@H]2CN(CC3CCOCC3)CCCCN12,-20.08
O=C(c1ccc2c(c1)OCO2)N1CC(=O)N2[C@H](CO)[C@H](c3ccc(C#Cc4ccccc4)cc3)[C@H]2C1,-2.746
CO[C@H]1CN(C)C(=O)c2ccc(NC(=O)NC(C)C)cc2OC[C@H](C)N(Cc2ccc(-c3ccccn3)cc2)C[C@H]1C,-11.06
CCC(=O)N1CCC2(CC1)CN(Cc1cccc(F)c1)[C@@H](CO)c1c2c2ccc(OC)cc2n1C,-0.7353
O=C(C[C@@H]1C[C@@H]2c3cc(NS(=O)(=O)c4ccc(F)cc4)ccc3O[C@@H]2[C@H](CO)O1)NCc1ccc(Oc2ccccc2)cc1,-15.67
O=C(Nc1ccc2c(c1)[C@H]1C[C@H](CC(=O)N3CCc4ccccc4C3)O[C@H](CO)[C@H]1O2)Nc1ccccc1F,-10.43
COc1cccc(CN(C)C[C@@H]2OCc3ccccc3-c3c(n(C)c4ccccc34)C(=O)N([C@@H](C)CO)C[C@@H]2C)c1,3.984
O=C1CNC[C@H]2[C@@H](c3ccc(C#Cc4cccnc4)cc3)[C@@H](CO)N12,-20.85
CN1c2ccc(-c3ccc(F)cc3)cc2[C@@H]2[C@@H](CCN2C(=O)C2CCOCC2)[C@H]1CO,-14.05
C[C@@H]1CN([C@@H](C)CO)C(=O)c2c(c3ccccc3n2C)-c2ccccc2CO[C@@H]1CN(C)C(=O)[C@H](Cc1ccccc1)N(C)C,0.3233
O=C(C[C@H]1C[C@@H]2c3cc(NC(=O)c4ccc5c(c4)OCO5)ccc3O[C@@H]2[C@@H](CO)O1)NCc1ccc(Cl)cc1,-6.923
O=C(CC1CC1)N1CC(=O)N2[C@H](C1)[C@@H](c1ccc(/C=C/c3ccccc3)cc1)[C@@H]2CO,11.05

3 of the entries, repeated:

{"compound": "C[C@@H]1CN([C@@H](C)CO)C(=O)c2c(c3ccccc3n2C)-c2ccccc2CO[C@@H]1CN(C)C(=O)[C@H](Cc1ccccc1)N(C)C", "Gaussia minus Italica difference (%)": "0.3233"}
{"compound": "COc1ccc2c3c([nH]c2c1)[C@H](CO)N(C(=O)NC(C)C)CC31CCN(C(=O)NC2CCCC2)CC1", "Gaussia minus Italica difference (%)": "-3.436"}
{"compound": "O=C(Nc1ccc2c(c1)[C@H]1C[C@H](CC(=O)N3CCc4ccccc4C3)O[C@H](CO)[C@H]1O2)Nc1ccccc1F", "Gaussia minus Italica difference (%)": "-10.43"}